Source: PubChem BioAssay AID504784 (Drosophila RNAi Screening Center, 2011)
Aim: 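Genome-wide knock-down for genes giving too much or too little stored lipid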 (primary screen). Cells: Drosophila Kc167 embryonic cells. Reagent: long dsRNA against Drosophila genes, about 250 ng dsRNA per well. Time to read-out: 4 days. Treatment: cells fed 400 µM oleic acid bound to BSA. Read-out: 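Cells imaged and segmented; ratio of lipid droplet area to nuclear area, log-transformed, then normalised as a B-score over the screen; higher means more stored lipid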. Direction: droplet/nuclear area B-score: higher = more stored lipid (overstorage).
The deposit covers about 17,000 reagents; below is a random part of those with a known target gene and a result. 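Each column is one replicate's B-score; the combined score over replicates was not deposited, so single values may mislead.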 Reagent sequences are not shown.

After knock-down of CG6654 [SID104195876], the screen gave droplet/nuclear area B-score, replicate 1 = -1.87; droplet/nuclear area B-score, replicate 2 = 9.69.
After knock-down of Tep4 [SID104183245], the screen gave droplet/nuclear area B-score, replicate 1 = 0.125; droplet/nuclear area B-score, replicate 2 = -0.387.
Knock-down of Ktl [SID104194062] came out at: droplet/nuclear area B-score, replicate 1 = 0.00408; droplet/nuclear area B-score, replicate 2 = 0.456.
Against Tom40 [SID104198588] the deposit lists droplet/nuclear area B-score, replicate 1 = 2.68; droplet/nuclear area B-score, replicate 2 = 0.813.
Nup75 [SID104186739] showed droplet/nuclear area B-score, replicate 2 = -0.522.
Against GalT1 [SID104201765] the deposit lists droplet/nuclear area B-score, replicate 1 = 0.0954; droplet/nuclear area B-score, replicate 2 = -1.86.
Against atlas [SID104183975] the deposit lists droplet/nuclear area B-score, replicate 1 = -1.9; droplet/nuclear area B-score, replicate 2 = -0.0241.
Zn72D [SID104191110] showed droplet/nuclear area B-score, replicate 1 = -0.181; droplet/nuclear area B-score, replicate 2 = -0.00516; droplet/nuclear area B-score, replicate 3 = 0.19.
tim [SID104180633] gave droplet/nuclear area B-score, replicate 1 = -0.0353; droplet/nuclear area B-score, replicate 2 = 1.81.
Against CG14598 [SID104192333], the entry reads droplet/nuclear area B-score, replicate 1 = -0.177; droplet/nuclear area B-score, replicate 2 = 0.233.
Against HPS4 [SID104186698], the entry reads droplet/nuclear area B-score, replicate 1 = 0.233; droplet/nuclear area B-score, replicate 2 = 0.0178.
Depletion of Lapsyn [SID104184041] came out at: droplet/nuclear area B-score, replicate 1 = 1.88; droplet/nuclear area B-score, replicate 2 = 1.5.
After knock-down of CG13085 [SID104181981], the screen gave droplet/nuclear area B-score, replicate 1 = 0.476; droplet/nuclear area B-score, replicate 2 = -0.889.
With knock-down of CG31495 [SID104196554] the results were droplet/nuclear area B-score, replicate 1 = -0.329; droplet/nuclear area B-score, replicate 2 = 0.659.
With knock-down of Tsp42Eo [SID104185976], the record shows droplet/nuclear area B-score, replicate 1 = 0.277; droplet/nuclear area B-score, replicate 2 = 1.25.
After knock-down of ND-49 [SID104196943] the results were droplet/nuclear area B-score, replicate 1 = 1.64; droplet/nuclear area B-score, replicate 2 = 2.63.
Polr1C [SID104182511] scored droplet/nuclear area B-score, replicate 1 = -0.26; droplet/nuclear area B-score, replicate 2 = -1.5.
Against Mcm3 [SID104198471] the deposit lists droplet/nuclear area B-score, replicate 1 = 2.54; droplet/nuclear area B-score, replicate 2 = 0; droplet/nuclear area B-score, replicate 3 = -0.933.
CG4042 [SID104191543] gave droplet/nuclear area B-score, replicate 1 = 0.352; droplet/nuclear area B-score, replicate 2 = 1.91.
Against fs(2)ltoPP43 [SID104181859], the entry reads droplet/nuclear area B-score, replicate 1 = 3.06; droplet/nuclear area B-score, replicate 2 = 0.014.
Silencing of CG18269 [SID104182452] gave: droplet/nuclear area B-score, replicate 1 = -0.664; droplet/nuclear area B-score, replicate 2 = 0.657.
After knock-down of Or88a [SID104196562], the record shows droplet/nuclear area B-score, replicate 1 = -0.0421; droplet/nuclear area B-score, replicate 2 = 0.821.
Against Mst84Db [SID104192334], the entry reads droplet/nuclear area B-score, replicate 1 = -0.115; droplet/nuclear area B-score, replicate 2 = -0.707.
Silencing of Mst84Db [SID104192390] resulted in: droplet/nuclear area B-score, replicate 1 = 0.627; droplet/nuclear area B-score, replicate 2 = 0.0227.
For CG13324 [SID104186153], the entry reads droplet/nuclear area B-score, replicate 1 = -0.612; droplet/nuclear area B-score, replicate 2 = 0.638.
Against mRpL28 [SID104182516], the values are droplet/nuclear area B-score, replicate 1 = 1.14; droplet/nuclear area B-score, replicate 2 = 2.07.
After knock-down of CG13560 [SID104183990] the results were droplet/nuclear area B-score, replicate 1 = -0.00689; droplet/nuclear area B-score, replicate 2 = -0.739.
